Measurements as given in patent US5973204A (priority 1997, dated 1999).

Assay: in vitro
Settings: breast carcinoma, other tumor cells

With `COc1cc2c(c(OC)c1OC)-c1ccc(SC)c(=O)cc1[C@@H](NC(C)=O)CC2` [thiocolchicine] the MCC was 0.6 nM.
